Experimental data as given in patent publication US20140248291A1, “Modulation of Cellular Migration” (THE UAB RESEARCH FOUNDATION, priority 2011, published 2014).
For at least one compound, name, drawing or mass did not settle the structure. Where no end group is shown, it is not given here.

Tests used:
Type in all cases: cell-based, human
D54-MG-GFP cells [1] = assay: slice invasion assay, acute rat brain slices
Experimental: Experiments were performed on male and female Sprague-Dawley rats and were approved by the University of Alabama Institutional Animal Care and Use Committee. 17-22 days old pups were decapitated. Meninges were stripped, brain was taken out and put in ice-cold bath ACSF. Tissue was sliced using Vibrotome 3000 sectioning system. 300 μm thick slices were let recover in ACSF for 1 hour at room temperature, followed by recovery in ACSF at 37° C. in […] for 1 hour. CD31 antibody (BD Biosciences, Pharminogen, San Diego, Calif.) that labels blood vessels was added during the latter recovery period. Slices were then transferred into transwell migration cell culture inserts (BD Biosciences, San Jose, Calif.) with 8 μm pores that were pretreated with Vitronectin and blocked as described above. 50,000 D54-EGFP MG cells were then seeded on top of the slices and allowed to migrate/invade into the tissue for 2 hours at 37° C. During that period, slices were treated with 1 μM BK, 1 μM BK+5 μM HOE-140 or 5 μM HOE-140 added to the bottom of migration chamber in order to create a concentration gradient, similar to in vitro migration/invasion assay (FIG. 5C). In control experiments, drug treatment was omitted. Following double washes with PBS, slices were fixed in 4% paraformaldehyde overnight at 4° C. The following day, samples were washed three times with PBS and the slices were mounted between two coverslips for imaging on an Olympus Fluoview confocal microscope with 60× objective.
Having established a dependence of migration and BK in vitro, the role of BK signaling in brain slices was examined, where the presence of neurons, glia and endothelial cells resemble the complex environment more reminiscent of the actual invasions of glioma cells in the human brain. To this end, acute brain slices of rat cortex, that can be maintained viable for many hours of investigation, were incubated with CD31 antibody to label blood vessels and seeded with D54-MG-GFP cells. Cells were allowed to migrate and invade for 2 hours in presence or absence of BK and in presence or absence of B2R antagonist HOE-140. The experimental set-up is illustrated in FIG. 5C. Representative confocal images of glioma cells invading into the slice in the presence of BK with and without antagonist HOE-140 added are shown in FIG. 5A, a, A, b and A, c. […] Data were analyzed by counting the number of glioma cells that attached to blood vessels in the presence of BK (77.4±4.1%, 391 cells analyzed), BK and antagonist HOE-140 (19.3±3.4%, 461 cells analyzed) or antagonist HOE-140 (42.7±4.2%, 452 cells analyzed) and compared with control (53.5±6.3%, 403 cells analyzed) where no drugs were added. […]

D54-MG-GFP glioma cells = assay: Transwell migration assay; conditions: 5 h, neuroligand at bottom of filter
Experimental: The day before the experiment was performed, ˜70% confluent dishes of cells were prepared. Transwell migration Fluoroblock cell culture inserts (BD Biosciences, San Jose, Calif.) with 8 μm pores were coated overnight with Vitronectin (BD Biosciences, San Jose, Calif.) at a concentration of 5 μg/ml in PBS. The following day, inserts were blocked with 1% fatty acid-free bovine serum albumin for 1 h. Inserts were then washed two times in PBS, and 400 μl of Migration Assay Buffer (MAB, 0.1% fatty acid-free bovine serum albumin in serum-free media) was added to the bottom of each well. Cells were rinsed once in PBS and were lifted off the dish by the addition of 0.5 mm EGTA. Cells were rinsed twice by centrifugation and resuspended in MAB and counted. […] The number of nuclei that migrated through pores was counted. All counts per treatment were averaged and SE values were calculated. […]
To investigate the hypothesis that BK promotes glioma migration in vitro, we used Transwell migration assay which conveniently permit examination of cell migration across a membrane barrier with 8 μm pores towards vitronectin, a chemo-attractant extracellular matrix protein. This frequently used assay allows a quantitative study of drug effects with regards to drugs acting as motogens or as chemo-attractants. […]

D54-MG-GFP cells [2] = assay: time-lapse motility assay in BK concentration gradient, D54-MG-GFP
U251 cells = assay: time-lapse motility assay in BK concentration gradient, U251; conditions: U251 cells in BK gradient (control 0.26±0.02)
D54 cells = assay: Matrigel invasion assay; conditions: 0.3 μM BK, 24 h
D54-EGFP tumor cells = assay: tumor invasion/growth in organotypic mouse brain slice cultures; conditions: BK (1 μM) alone compared to BK and HOE-140
Experimental: Slice cultures were prepared from brains of P13-P16 BALB/c scid mice (Jackson Laboratory). Coronal brain sections 300 μm thick were sliced with a Vibrotome 3000 sectioning system in ice cold artificial saline. Brain slices were transferred into filter inserts with a polycarbonate membrane (Falcon, BD, pore size 0.45 μm). Filters were placed into 6-well plates containing 1 ml of DMEM supplemented with 8% FCS, 0.2 mM glutamine, 100 U/mL penicillin, and […] streptomycin. After overnight repose the medium was changed to cultivation medium containing 25% heat-inactivated horse serum, 50 mM sodium bicarbonate, 2% glutamine, 25% Hank's balanced salt solution, […] insulin (all from Gibco), 2.46 mg/mL glucose (Sigma Aldrich), 0.8 mg/mL vitamin C (Sigma Aldrich), 100 U/mL penicillin, […] streptomycin (Sigma Aldrich), and 5 mM Tris in DMEM (Gibco). At day 3 of culturing approximately 3000 D54-EGFP tumor cells in a volume of 1 μl were implanted per organotypic brain slice. Cells were injected using a 1 μl hemilton syringe mounted to a micromanipulator. The cell suspension was slowly injected over 30 seconds and subsequently the syringe was slowly pulled out. Gliomas were always inoculated into the right cortex. […] The tumor area was determined using ImageJ software (available from rsbweb.nih.gov). Tumor growth was calculated between day 4 and day 11 of culturing.

D54-MG cells = assay: calcium imaging (Fura-2) of D54-MG cells after neuroligands
Experimental: D54-MG cells were plated on 35-mm glass bottom dishes (MatTek, Corp., Ashland, Mass.) at ˜100×10^3 per dish and cultured for 2 days. pTRIPZ transfected cells, after stable selection, were plated at a density of ˜20×10^3 per dish and treated with […] doxycycline for 4 to 5 days to allow for sufficient protein knockdown. All cells were loaded in serum-free culture medium for 45 min with the ratiometric Ca^2+ dye Fura-2-acetoxymethylester (5 μmol/L; TEFLABS, Austin, Tex.) reconstituted in 20% wiv pluronic acid in DMSO (Invitrogen, Carlsbad, Calif.). Cells were rinsed with serum-free medium and allowed to rest in 7% serum-containing medium for 45 min at 37° C. The glass-bottom dishes were placed in an environmental chamber mounted on an inverted microscope. Cells were allowed to equilibrate in the chamber for 15 min before calcium images were collected. Following equilibration, recordings were obtained with an Olympus Disk Spinning Unit (DSU) fluorescent imaging microscope where cells were alternately excited at 340 and 380 nm using an x-cite illumination light source. Emitted light was collected at >520 nm. Images were digitized online using Slidebook 4.2 software (Intelligent Imaging Innovations, Denver, Colo.), and 340:380 nm ratios were obtained every 15 seconds. Following a 5 minute baseline recording every 15 seconds, BK was applied to the cells and imaging continued every 15 seconds for 30 or 60 minutes. In a subset of experiments, BK antagonists, HOE-140 and Bradyzide were applied to the cells. These experiments were repeated at least three times and data were pooled for statistical analysis.
Glioma cells respond to environmental clues as they invade the brain. It has been previously shown that the exposure of glioma cells to certain neuroligands induces increase in intracellular calcium concentrations. In this series of experiments, we investigated Ca^2+-responses in cultured D54-MG glioma cells, after addition of acetylcholine (ACh), ATP or BK. Glioma cells were loaded with the ratiometric Ca^2+-dye FURA2-AM, and imaged over 30 min.

[3] = tested on: MMP gelatinase activity of D54 MG cells; assay: in-situ zymography of gelatinolytic MMP activity (DQ gelatin); conditions: BK
Experimental: To assess gelatinolytic MMP activity we used in situ zymography, as described previously (Deshane J et al, 2003). Briefly, after cell nuclei were labeled with Hoechst dye, fluorescein isothiocyanate-labeled DQ gelatin with BK+/−antagonists (Molecular Probes, Eugene, Oreg.) was applied overnight on the coverslips plated with D54 MG cells. Coverslips where drugs were omitted were processed in parallel and used as controls. At the end of the incubation period, cells were photographed by fluorescence microscopy with a Zeiss Axiovert 200 M microscope using a 20× objective. Quantification of fluorescent staining intensity after background subtraction was done using Slidebook 4.2 software (Intelligent Imaging Innovations, Denver, Colo.). Experiments were repeated three times.
To investigate the hypothesis that BK promotes glioma migration in vitro, we used Transwell migration assay which conveniently permit examination of cell migration across a membrane barrier with 8 μm pores towards vitronectin, a chemo-attractant extracellular matrix protein. This frequently used assay allows a quantitative study of drug effects with regards to drugs acting as motogens or as chemo-attractants. D54-MG-GFP glioma cells were allowed to migrate for 5 h in the presence/absence of neuroligands. […] Next, we tested glioma cell migration in various BK concentrations. […]

Sequence: RPPGFSPFR [BK, Arg-Pro-Pro-Gly-Phe-Ser-Pro-Phe-Arg]
- glioma cells attached to blood vessels (D54-MG-GFP cells [1]; 1 μM BK, 2 h, 391 cells analyzed (control 53.5±6.3%)): 77.4±4.1%
- cells invaded up to 15 μm (D54-MG-GFP cells [1]; BK): 11.9%
- cells invaded up to 20 μm (D54-MG-GFP cells [1]; BK): 44.2%
- cells invaded up to 25 μm (D54-MG-GFP cells [1]; BK): 29.6%
- effect on D54-MG cell migration (D54-MG-GFP glioma cells): significantly increase migration
- increase of cell velocity compared to control (D54-MG-GFP cells [2]; BK concentration gradient): 29.5±8.7%
- increase of distance traveled compared to control (D54-MG-GFP cells [2]; BK concentration gradient): 28.8±8.9%
- cells moved towards increasing BK concentration (D54-MG-GFP cells [2]; BK concentration gradient, representative field, 5 h): 12/15
- average velocity (D54-MG-GFP cells [2]; D54 cells in BK gradient (control 0.52±0.05)): 0.68±0.05 μm/min
- average distance (D54-MG-GFP cells [2]; D54 cells in BK gradient (control 157.6±8.0)): 203.0±8.1
- average velocity (U251 cells): 0.46±0.07 μm/min
- effect on invasion (D54 cells): increased glioma cells significantly
- tumor growth day 4 to day 11 (D54-EGFP tumor cells): significantly greater tumor growth
- average peak of Ca2+ response (D54-MG cells; 0.1 μM BK): 0.34±0.02
- cells responded / cells imaged (D54-MG cells; 0.1 μM BK): 256/283
- average peak of Ca2+ response (D54-MG cells; 0.3 μM BK): 0.33±0.07
- cells responded / cells imaged (D54-MG cells; 0.3 μM BK): 300/330
- average peak of Ca2+ response (D54-MG cells; 1.0 μM BK): 0.30±0.07
- cells responded / cells imaged (D54-MG cells; 1.0 μM BK): 231/247
- Ca2+-oscillations on prolonged exposure (D54-MG cells; 1 μM BK, 60 min): resulted in Ca^2+-oscillations
- average peak of Ca2+ response (D54-MG cells; 10 μM BK): 0.45±0.03
- cells responded / cells imaged (D54-MG cells; 10 μM BK): 85/109
- cells with frequent Ca2+-oscillations on prolonged exposure (D54-MG cells; FIG. 2C, prolonged exposure to BK): 9/11
- MMP activity (fluorescence of DQ gelatin) [3]: significant increase of fluorescence
